Test results reported in article PMC11919600.
These are yes or no findings as the source states them, for the method shown. Binding seen in cells or lysates may run through a third protein. Some binding calls cover weakened binding; strength is not graded here.

By UniProt entry, the sequences of proteins in these tests, tags left out.
UniProt P21926: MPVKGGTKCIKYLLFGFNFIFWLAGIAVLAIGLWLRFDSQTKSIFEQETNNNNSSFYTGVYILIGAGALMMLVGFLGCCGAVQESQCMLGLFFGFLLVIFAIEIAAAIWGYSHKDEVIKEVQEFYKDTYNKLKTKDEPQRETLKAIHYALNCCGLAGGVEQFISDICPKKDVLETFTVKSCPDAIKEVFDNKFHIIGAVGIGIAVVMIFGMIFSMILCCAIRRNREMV
UniProt Q99816: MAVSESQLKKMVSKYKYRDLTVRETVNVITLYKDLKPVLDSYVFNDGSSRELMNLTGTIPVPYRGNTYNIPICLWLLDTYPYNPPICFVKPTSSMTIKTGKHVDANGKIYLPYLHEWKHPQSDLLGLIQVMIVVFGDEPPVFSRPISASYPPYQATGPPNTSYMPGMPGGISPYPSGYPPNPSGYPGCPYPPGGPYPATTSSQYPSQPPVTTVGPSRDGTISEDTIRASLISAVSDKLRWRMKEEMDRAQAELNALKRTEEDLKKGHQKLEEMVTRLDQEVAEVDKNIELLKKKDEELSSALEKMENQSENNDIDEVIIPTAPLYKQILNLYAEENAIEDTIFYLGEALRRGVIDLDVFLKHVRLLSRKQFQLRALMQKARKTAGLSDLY

Legend:
[1] = target: CD9 with a C-terminal RFP tag (UniProt P21926); assay: co-IP; RFP-Trap magnetic agarose beads with whole-cell lysates of CD9-RFP cells (HEK293 WT lysate and PBS as controls); NP-40 lysis buffer (50 mM Tris-Cl pH 8.0, 150 mM NaCl, 0.5% NP-40); 1 h, 4 °C; immunoblot
[2] = target: tetraspanin CD9 (endogenous) (human (endogenous in HEK293)) (UniProt P21926); assay: co-IP; anti-CD9 Dynabeads with whole-cell lysates of HEK293 WT or CD9-RFP cells; NP-40 lysis buffer (50 mM Tris-Cl pH 8.0, 150 mM NaCl, 0.5% NP-40); 1 h, 4 °C; immunoblot

In the case of TSG101 (from UniProt Q99816 1-390), the binding [1] was “binds” and the binding [2] was “binds”.
